## Library screening results

Measurements from “University of Dundee, Small-Polar-MMV Screening Library” (2021), ChEMBL document CHEMBL3988442.

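Whole-cell assay for inhibitors of Mycobacterium tuberculosis growth, labelled Cornell in the record; the read-out is not stated. The concentration is filed as 10 mM, unlikely as a test dose, so the dose is not known. The record gives no direction; compounds strong in two other growth screens of this library score well above the rest, so higher reads as stronger inhibition. Size under these conditions: about 53,000 compounds, about 900 of them at 50% or above in at least one test.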

Values are the deposited “Percent Effect”, in %. How 0% and 100% were set is not recorded. Most values in the screen are low, and negative values occur. Compounds were drawn at random from those tested, without regard to their results.

| # | Compound | Percent Effect |
|---|---|---|
| 1 | `CC[C@@H](CO)NC(=O)c1coc(COc2ccc3sc(C)nc3c2)n1` | 16.66 |
| 2 | `O=C(CN1CC(c2nc(-c3ccco3)no2)C1)NCC1CCCO1.O=C(O)C(=O)O` (centres undefined) | -47.18 |
| 3 | `O=C(O)C(F)(F)F.O=C(O)C(F)(F)F.[H][C@]12CCN(Cc3cccnc3)CC[C@@]1([H])S(=O)(=O)N(CC(C)C)C2` | 9.676 |
| 4 | `O=S(=O)(NCc1ccccc1)Nc1ccc(-n2ccnc2)cc1` | -71.56 |
| 5 | `CC(=O)c1cccc(-c2nc3c([nH]2)CCNC3)c1F` | 37.4 |
| 6 | `COCc1nc(CNc2cccc(-c3nc(C)c(C)o3)c2)cs1` | 46.4 |
| 7 | `COc1nc(C)c(C(=O)N2CCN(c3ncccc3C)CC2)s1` | 3.904 |
| 8 | `CCCN(Cc1nccn1C)C(=O)c1cc(C)nc(C)n1` | -1.252 |
| 9 | `O=C(C1CC=CC1)N1CCCn2nnc(CNc3ncccn3)c2C1` | 13.84 |
| 10 | `Cc1ccc(-c2cc(CNc3ncnc4c3CCNCC4)no2)cc1` | -5.47 |
| 11 | `Cn1cc(N2CCC(NC(=O)c3c(F)cccc3F)C2=O)cn1` (centres undefined) | -3.14 |
| 12 | `CN(C)CC1(O)CCN(S(=O)(=O)c2ccc(F)c(F)c2)C1` (centres undefined) | -5.94 |
| 13 | `CC(C)c1cccc(-n2cc(O)c(C(N)=O)n2)c1` | -2.019 |
| 14 | `CCn1nc(C)c2ncnc(NCCn3cccn3)c21` | -11.33 |
| 15 | `CCc1nnc(CN(C)c2nc(C3CCCC3)nc3c2cnn3C)o1` | 11.49 |
| 16 | `CC(=O)Nn1ccc2c(nnc3c(-c4ccc(F)cc4)cnn32)c1=O` | -30.75 |
| 17 | `CN1CCC2(C=C(C(=O)N(C)C)c3ccccc32)CC1` | -0.8814 |
| 18 | `COc1cc2c(cc1CN1CCn3c(CO)nnc3C1)CCC2.O=C(O)CC(O)(CC(=O)O)C(=O)O` | -11.95 |
| 19 | `O=C(O)C(F)(F)F.O=C1COC2(CCN(Cc3ccoc3)CC2)CN1` | 5.377 |
| 20 | `Cc1ccc(OC2(C(=O)O)CCN(C(=O)CCc3ccco3)CC2)cn1` | -11.45 |
| 21 | `CCCc1ccc(C(=O)N2CCc3c(nc(N(C)C)[nH]c3=O)C2)cc1` | -28.39 |
| 22 | `CN1CC(=O)N(c2cnn(C)c2)CC12CCN(Cc1ccccc1)C2.O=C(O)C(F)(F)F.O=C(O)C(F)(F)F` (centres undefined) | -4.692 |
| 23 | `O=C(O)C(F)(F)F.O=C(O)C(F)(F)F.OCCN1CC2(CCN(CC3CC3)CC2)c2ccccc21` | 53.69 |
| 24 | `CN1C(=O)CC2(CCN(Cc3cnn(C)c3)CC2)c2ccccc21` | -5.156 |
| 25 | `Cc1nn(C)c(C)c1C1CCCN1C(=O)CCc1cscn1` (centres undefined) | -18.43 |
| 26 | `[H][C@]12CCN(c3cc(OC)ncn3)[C@@]1([H])C[C@@H](C(=O)NCC1CC1)O2` | -15.19 |
| 27 | `CC(C)C(=O)N1CCCC1c1nc(N(C)C)ncc1-c1ccc(Cl)cc1` (centres undefined) | -11.19 |
| 28 | `O=C(CN1CCS(=O)(=O)CC1)NC1CCCOc2ccccc21` (centres undefined) | -6.193 |
| 29 | `CN(CCOc1ccc(C#N)cc1)CC1CC1` | -39.03 |
| 30 | `CN(C)C(=O)c1cc(-c2cnc(N)nc2)nc2cc(F)ccc12` | 1.645 |
| 31 | `CC(C)c1ncc(CN2CCCC(CO)C2)cn1` (centres undefined) | 0.9434 |
| 32 | `CC(C)c1nnc2n1CCN(C(C(N)=O)c1ccc(F)cc1)C2` (centres undefined) | 12.83 |
| 33 | `CS(=O)(=O)N[C@@H]1CCO[C@]2(CCN(C(=O)c3cscn3)C2)C1` | -39.52 |
| 34 | `Cc1cc(C2CCCN2C(=O)NCc2cccnc2N(C)C)on1` (centres undefined) | -2.332 |
| 35 | `OCCC1CN(c2nc(-c3cccnc3)nc3c2CCNCC3)CCO1` (centres undefined) | 4.241 |
| 36 | `CCc1nc2ccccc2c(=O)n1CC1(O)CCN(S(C)(=O)=O)CC1.Cl` | 3.162 |
| 37 | `Cn1cc(S(=O)(=O)N(CC(F)(F)F)C2CC2)cc1C(N)=O` | -14.68 |
| 38 | `c1ccc(-c2cnc(CNC3CCCN(c4cccnn4)C3)o2)cc1` (centres undefined) | 14.73 |
| 39 | `CC(C(=O)NCC(C)(C)c1ccc2c(c1)OCO2)n1ccnc1` (centres undefined) | 7.887 |
| 40 | `CCOC(=O)C1CCN(C(=O)c2cc(Br)ccc2-n2cnnn2)CC1` | 3.399 |
| 41 | `Fc1cccc(-c2nccnc2C2CCCNC2)c1` (centres undefined) | 14.88 |
| 42 | `Cc1ccc(C)c(CN(C)Cc2nnc3ccccn23)c1` | 6.688 |
| 43 | `CCCc1nc(CN2CCOC(CNc3cccnn3)C2)cs1` (centres undefined) | 27.47 |
| 44 | `CC(C)C(=O)N1CCC(C)(c2cc[nH]n2)CC1` | -2.707 |
| 45 | `Cc1nn(CCNS(=O)(=O)NCc2ccccc2)c(C)c1Cl` | 21.91 |
| 46 | `O=C1c2cnc(N3CCOCC3)nc2CN1C1CCS(=O)(=O)C1` (centres undefined) | -1.489 |
| 47 | `O=C(O)C(F)(F)F.[H][C@]12CCN(c3cncnc3)C(=O)[C@]1([H])CN(Cc1ccccn1)C2` | -4.311 |
| 48 | `CCn1c(C)nnc1SCCNC(=O)c1cccc2ccnn12` | -29.37 |
| 49 | `CCCS(=O)(=O)N1Cc2nccn2CC(Cn2cncn2)C1` (centres undefined) | -26.35 |
| 50 | `COc1ccc(C(=O)N2Cc3cc(C)ccc3OCC2CN(C)C)cc1.Cl` (centres undefined) | -3.448 |
| 51 | `CCN(CC1CN(Cc2ncc[nH]2)CCO1)c1cccnn1` (centres undefined) | 19.53 |
| 52 | `Cc1nn2c(NCC(N)=O)cc(-c3ccccc3)nc2c1C` | 8.135 |
| 53 | `Cc1cccc(C(C(=O)NCCCc2ccncc2)N(C)C)c1` (centres undefined) | 9.196 |
| 54 | `CCNc1cc2c(nn1)CCN(C(=O)c1c(C)noc1C)C2` | 10.51 |
| 55 | `CCC(C(=O)N(C)Cc1cc(-c2ccccc2)n[nH]1)n1cccn1` (centres undefined) | 5.254 |
| 56 | `CN(C)C(=O)c1ccc2ccc(N3CCN(CC4CC4)CC3)n2c1` | -12.17 |
| 57 | `Fc1ccc(CN2CCCC3(COCCN(Cc4c[nH]nn4)C3)C2)cc1.O=C(O)C(F)(F)F.O=C(O)C(F)(F)F` (centres undefined) | 26.49 |
| 58 | `COc1cccc(-c2n[nH]c3c2CN(C(=O)c2cc(C)n(C)n2)CC3)c1` | -11.42 |
| 59 | `CC(O)CC(C)(C)CNC(=O)NCc1cccc(-n2cncn2)c1` (centres undefined) | 13.28 |
| 60 | `CC(C)(NC(=O)Nc1cnn(CC2CCCO2)c1)c1nccs1` (centres undefined) | 2.869 |
| 61 | `Cc1nnc(NC(=O)CN(C)CC2CCCN2c2cccnn2)s1` (centres undefined) | 7.728 |
| 62 | `CC(C)N1CCC2(CC1)CC(CC(N)=O)c1ccc(F)cc12.O=C(O)C(F)(F)F` (centres undefined) | -50.3 |
| 63 | `Cn1ccnc1CN(CCO)C(=O)C1CCN(C(=O)C2CC2)CC1` | -10.51 |
| 64 | `Cc1nc(S(=O)(=O)N2CCCCc3ccccc32)cn1C` | -1.491 |
| 65 | `Cc1nc(C)c2c(n1)CCN(Cc1ccsc1)CC2` | 20.7 |
| 66 | `CC(=O)N1CCN(CC2CCOc3ccccc3C2)CC1` (centres undefined) | -7.359 |
| 67 | `CCC(CO)NC(=O)Cc1ccc(NC(=O)CC2=CCCCC2)cc1` (centres undefined) | -12.14 |
| 68 | `NC(=O)N1CCC2(CC1)CN(Cc1cccnc1)C(=O)CO2.O=C(O)C(F)(F)F` | 7.492 |
| 69 | `CC(C)OCc1nn(C)c2c1CCN(CC1CC1)C2.O=C(O)C(F)(F)F` | 1.797 |
| 70 | `Nc1cc(N2CCCC2c2cnccn2)ncn1` (centres undefined) | 18.8 |
| 71 | `COCc1nc(CN2CCN(c3ccc(OC)cc3)C(=O)C2C)no1` (centres undefined) | -18.06 |
| 72 | `Cc1cc(NC(=O)NCC(C(C)C)N2CCOCC2)n(C)n1` (centres undefined) | -1.082 |
| 73 | `[H][C@]12CCNC[C@@]1([H])OCCN(C(=O)c1ccco1)C2` | -14.9 |
| 74 | `CN(C)C(=O)N1CCN(CCn2nc3ccccn3c2=O)CC1` | -1.786 |
| 75 | `COc1cccc(COCC(=O)N2CCCC(c3nncn3C)C2)c1` (centres undefined) | 2.587 |
| 76 | `Cc1cnc(C)c(Oc2ccc(Cl)c(CN3CCCC3)c2Cl)n1` | -10.56 |

9 of the entries, repeated:

* Cc1nn(CCNS(=O)(=O)NCc2ccccc2)c(C)c1Cl | 21.91%
* CC(C)c1ncc(CN2CCCC(CO)C2)cn1 (centres undefined) | 0.9434%
* CC(C)C(=O)N1CCC(C)(c2cc[nH]n2)CC1 | -2.707%
* CC(=O)N1CCN(CC2CCOc3ccccc3C2)CC1 (centres undefined) | -7.359%
* Cc1cc(C2CCCN2C(=O)NCc2cccnc2N(C)C)on1 (centres undefined) | -2.332%
* CCCc1nc(CN2CCOC(CNc3cccnn3)C2)cs1 (centres undefined) | 27.47%
* Cc1nnc(NC(=O)CN(C)CC2CCCN2c2cccnn2)s1 (centres undefined) | 7.728%
* Nc1cc(N2CCCC2c2cnccn2)ncn1 (centres undefined) | 18.8%
* Fc1cccc(-c2nccnc2C2CCCNC2)c1 (centres undefined) | 14.88%